Literature values in US12447192B1, “Stable cannabinoid-comprising nanoemulsions and methods of using the same” (SGN Nanopharma Inc., priority 2020, dated 2025).
Some results were stated once for a whole list of compounds, not compound by compound.

Details: for decrease of concentration in cannabis oil formulations: same timeframe (3-7 days); for decrease of concentration in a solution as a tea: stored at room temperature for 3-7 days

SMILES	decrease of concentration in cannabis oil formulations	decrease of concentration in a solution as a tea [%]
C=C(C)[C@@H]1CCC(C)=C[C@H]1c1c(O)cc(CCCCC)cc1O [CBD, cannabidiol]	up to 38%	≤ 50
CCCCCc1cc(O)c2c(c1)OC(C)(C)[C@@H]1CCC(C)=C[C@@H]21 [THC, Tetrahydrocannabinol]	up to 38%	≤ 50
